PubChem BioAssay AID1224830 – NIAID, 2016
The whole screen tested about 18,000 reagents; below is an unselected part. About 2,900 of them (16%) count as active. 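Calls are made per well; low scores hint the gene aids the LPS response, high scores that it dampens it.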 Unmarked entries are inactive. Reagents against one gene are numbered here. Repeated entries: four replicate wells of each siRNA pool.

Test: 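Regulators of TLR4 signalling towards TNF-alpha in macrophage-like cells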 (primary screen)
System: human THP-1 monocytic leukaemia cells, TNF dual-luciferase reporter clone, PMA-differentiated to macrophage-like cells
Knock-down reagent: siRNA pool against human genes, 50 nM
Duration: LPS for 4 h, given about 3 days after siRNA transfection
Challenge: bacterial LPS (TLR4 ligand), 10 ng/ml
Measured: 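TNF firefly reporter luminescence divided by renilla, normalised to the plate median, then turned into a robust z-score for each replicate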
Scale: TNF reporter robust z-score: higher = stronger TNF reporter response to LPS
Active means: 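a well is active when its z-score exceeds 2.8 or falls below -1.5; control wells carry no call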

For ACSBG1, the entry reads TNF reporter robust z-score 0.71. Knock-down of ACSBG1 came out at: TNF reporter robust z-score 1.96. ACSBG1 scored TNF reporter robust z-score 1.04. With knock-down of ACSBG1 the results were TNF reporter robust z-score 1.06. For ACSL4 the deposit lists TNF reporter robust z-score 0.6. Against ACSL4, the values are TNF reporter robust z-score -0.03.

Silencing of ACSL4 resulted in: TNF reporter robust z-score -0.08. Knock-down of ACSL4 came out at: TNF reporter robust z-score 1.46. Against ALDH7A1, the values are TNF reporter robust z-score -0.63. With knock-down of ALDH7A1 the results were TNF reporter robust z-score 0.11. With knock-down of ALDH7A1 the results were TNF reporter robust z-score 0. ALDH7A1 scored TNF reporter robust z-score 0.77.

Silencing of SEPTIN4 #1 resulted in: TNF reporter robust z-score -1.17. SEPTIN4 #1 scored TNF reporter robust z-score -0.8. SEPTIN4 #1 scored TNF reporter robust z-score -0.45. SEPTIN4 #1 gave TNF reporter robust z-score -0.4. Depletion of SEPTIN4 #2 resulted in: TNF reporter robust z-score 0.28. SEPTIN4 #2 gave TNF reporter robust z-score 1.68.

SEPTIN4 #2 showed TNF reporter robust z-score 1.05. Knock-down of SEPTIN4 #2 resulted in: TNF reporter robust z-score 0.74.

Reformatted: entries from further up
gene knocked down,pool no.,TNF reporter robust z-score
ACSBG1,1,1.04
ACSBG1,1,1.06
ACSL4,1,0.6
ACSL4,1,-0.03
ACSL4,1,-0.08

The list goes on.
Depletion of PPP1R14A came out at: TNF reporter robust z-score 0.37. For PPP1R14A, the values are TNF reporter robust z-score 0.84. Against PPP1R14A, the entry reads TNF reporter robust z-score 0.08. PPP1R14A gave TNF reporter robust z-score 0.28. Against PTPRE the deposit lists TNF reporter robust z-score 1.52. Depletion of PTPRE gave: TNF reporter robust z-score 3.56 (active).

With knock-down of PTPRE the results were TNF reporter robust z-score 1.41. Against PTPRE, the entry reads TNF reporter robust z-score 3.53 (active). Knock-down of FCAMR resulted in: TNF reporter robust z-score -1.07. With knock-down of FCAMR, the record shows TNF reporter robust z-score -1.26. With knock-down of FCAMR, the screen gave TNF reporter robust z-score -1.06. For FCAMR, the values are TNF reporter robust z-score -0.39.
